## Screening data, single-dose tests

Protein sequences, listed by entry. Tags and fused reporters are not part of them. Residues count along the entry.
UniProt Q8IDJ8, 1-583: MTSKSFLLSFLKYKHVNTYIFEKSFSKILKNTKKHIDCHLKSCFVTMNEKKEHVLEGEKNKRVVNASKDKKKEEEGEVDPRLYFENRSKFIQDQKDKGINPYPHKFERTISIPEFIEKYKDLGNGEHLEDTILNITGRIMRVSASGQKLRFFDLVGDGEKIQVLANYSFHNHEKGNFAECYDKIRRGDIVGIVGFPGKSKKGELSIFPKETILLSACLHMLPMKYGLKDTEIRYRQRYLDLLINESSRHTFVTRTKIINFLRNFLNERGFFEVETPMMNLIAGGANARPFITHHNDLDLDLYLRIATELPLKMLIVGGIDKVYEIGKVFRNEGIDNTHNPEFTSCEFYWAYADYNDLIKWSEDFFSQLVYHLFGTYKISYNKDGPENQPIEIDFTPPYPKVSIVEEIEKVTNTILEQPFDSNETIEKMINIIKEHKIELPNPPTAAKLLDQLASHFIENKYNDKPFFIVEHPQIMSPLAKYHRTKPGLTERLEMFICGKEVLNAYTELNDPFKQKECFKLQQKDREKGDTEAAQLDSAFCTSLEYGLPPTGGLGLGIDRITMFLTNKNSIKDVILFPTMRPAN

The values are deposited in ChEMBL (CHEMBL3988442, “University of Dundee, Small-Polar-MMV Screening Library” (2021)).

The filed quantity is “Percent Effect” (%).
How 0% and 100% were set is not recorded. Most values in the screen are low, and negative values occur.
The compounds are a random part of those screened.

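Enzyme assay of the cytosolic lysyl-tRNA synthetase in 384-well plates, read by luminescence. Target: Lysine-tRNA ligase, Plasmodium falciparum 3D7 (UniProt Q8IDJ8). Concentration: 30 µM. Higher reads as stronger inhibition, judged from the few compounds that gave an IC50. Size under these conditions: about 69,000 compounds, about 49 of them at 50% or above in at least one test.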

compound | effect
O=C(C1CCOC1)N1CCC2(CCN(Cc3nccs3)CC2)CC1 (stereo not shown) | 3.999
CCc1cn[nH]c1C1CCN(C(=O)c2cc(C(C)=O)c(C)[nH]c2=O)CC1 | 5.053
CC(=O)c1c(O)n(C)c2ccc(F)cc12 | -0.1143
CCCS(=O)(=O)N1CCC2(CN(c3ccccc3)C(=O)CN2C)C1 (stereo not shown) | 2.139
COc1cccn(CC(=O)N(C)CCCOc2c(C)cccc2C)c1=O | -2.297
Cc1ccc(C2CSCCN2C(=O)c2ccsc2)o1 (stereo not shown) | 4.101
CN1C(=N)NC(=O)/C1=C/c1ccc(-c2ccc(Br)cc2)o1 | 0.6934
Cc1ccc(C2CSCCN2CCS(C)(=O)=O)cc1 (stereo not shown) | 1.744
O=C(c1ccc[nH]1)N1CCCn2c(CN3CCCCC3)nnc2C1 | 5.013
c1c2c(nn1CC1CCOCC1)C(CNC1CCOCC1)OCC2 (stereo not shown) | -1.291
O=C(C1CCCc2[nH]ncc21)N1CCCC1 (stereo not shown) | 1.634
Cc1noc(CN(Cc2ccc3c(c2)OCO3)C2CCCC2)n1 | 4.19
CC1=CCN(C(=O)Nc2ccccc2N2CCOC2=O)CC1 | -0.5593
COc1nn(C)c2c1CCCN(C(=O)c1ccccc1)C2 | 5.889
O=C(NC1CCCN(c2ccc(OC(F)F)cc2)C1)c1c[nH]nn1 (stereo not shown) | -5.266
Cc1nc(-c2cccnc2)ncc1C(=O)N1CCCC(N(C)C)CC1 (stereo not shown) | 3.175
COc1cccc(COCC(=O)N2CCCC(n3ccnc3)C2)c1 (stereo not shown) | -1.204
CC(NC(N)=O)C(=O)NCc1cc(Br)ccc1F (stereo not shown) | -4.582
CCc1ncc2c(n1)CN(C(=O)COC)C2 | 5.135
O=C([C@H]1COC[C@H]2CN(Cc3ccco3)C[C@H]21)N1CCCO1 | -0.02373
COCCN(Cc1cc(O)nc2ccccc12)C(=O)NC(C)C | -6.04
Cc1cnc2[nH]c(C(F)(F)F)c(CN3CCSCC3)c2c1 | -0.3147
CC(C)C(=O)NCCNC(=O)CCOc1cccc(F)c1 | 0.8806
Cn1cc(C(=O)NCC(Cc2cccc(F)c2)N2CCCCC2=O)nn1 (stereo not shown) | 2.525
CCc1noc(CNC2CCCN(Cc3noc(C4CC4)n3)C2)n1 (stereo not shown) | -0.5148
Nc1ccc(-c2cnc(C3CCCN3)cn2)cn1 (stereo not shown) | -2.49
COC(=O)CN(Cc1ccccc1C)C(=O)CCCNC(=O)C1CC1 | -4.798
Cc1nc(N2CCN3CCCCC3C2)nc2cc(S(C)(=O)=O)ccc12 (stereo not shown) | 2.969
O=C1NC2(CCN(C(=O)Cc3ccsc3)CC2)CC1c1ccncc1 (stereo not shown) | -0.2615
CN(C)S(=O)(=O)NCc1cccnc1Oc1ccccc1 | 4.586
Fc1cnc(N2CC[C@@H]3O[C@@H](COCc4cccnc4)CC[C@@H]32)nc1 | 2.943
CCN1CCN(CCNc2nc3ccc(C)cc3c(=O)n2C)CC1 | -3.295
CC(C)N(C)S(=O)(=O)c1ccc2c(c1)CCN(C(=O)c1cccnn1)C2 | 4.648
Cc1cnn(CC2CCCCN2CC(=O)NCc2ccccn2)c1 (stereo not shown) | 1.288
CCC(C)(C)NC(=O)C1CC(=O)N(CC2CC2)C1 (stereo not shown) | -3.861
O=C(NCC(c1cccs1)N1CCOCC1)c1ccc(F)cc1Cl (stereo not shown) | -0.3313
CN(C)C(=O)N1CC2(CCN(S(=O)(=O)C3CC3)CC2)c2ccccc21 | 2.411
O=C(NCC1CCS(=O)(=O)C1)N(Cc1ccccn1)C1CC1 (stereo not shown) | 2.971
Cc1cccc(CN2C[C@@H](CN3CCCN(C)CC3)C[C@H](CO)C2)n1 | 0.1567
CNc1ccc(C2CN(c3cc(C)nc(N)n3)CCO2)nc1 (stereo not shown) | -0.5796
O=C(C1CCOCC1)N1CCOC(CC2CCCCC2)C1 (stereo not shown) | 2.999
N#CC1(C(=O)NCCCNc2ccc(C(F)(F)F)cn2)CCCC1 | -0.1091
c1ccc(NCc2ccsc2)c(Cn2cncn2)c1 | -0.09316
Fc1cccc(-c2nc(CN3CCCC3Cn3cccn3)co2)c1 (stereo not shown) | -1.476
COc1ccc(CN2CCC=C(C(C)NC(C)=O)C2)cc1 (stereo not shown) | 3.989
c1cc(CN2CCOCC3(CCN(CC4CCOCC4)CC3)C2)ccn1 | 1.064
N#Cc1c(SCCN2CCCCCC2)sc2c(O)cc(O)nc12 | -0.1612
O=C(NCC1CCC1)c1cccc(CN2CCS(=O)(=O)CC2)c1 | 1.057
CN1CCN(C(=O)Cn2nc(C(F)(F)F)c(Br)c2C2CC2)CC1 | -2.586
CC(=O)N1[C@H](CN(C)C)C[C@@H]2CN(C(=O)Cc3cccs3)CC[C@@H]21 | 3.562
CC(=O)c1cccc(OCCCC(=O)N(C)Cc2cnn(C)c2)c1 | 1.083
CCC(NC(=O)C1CCN(S(C)(=O)=O)CC1)c1ccc(C)cc1C (stereo not shown) | 4.619
Cc1c[nH]c(CN2CCCCC2CCN(C)C)c(C)c1=O (stereo not shown) | 4.887
O=C(NCc1ccccc1CN1CCCCCC1)Nc1nncs1 | 8.634
Cc1cc(N(C)CCOc2ccccc2F)nc(N)n1 | 6.275
CN(CCc1noc(C2CC2)n1)C(=O)CCc1cc2n(n1)CCCNC2 | 8.722
CCN(CC)C(CNCc1ccc(O)cc1)c1ccco1 (stereo not shown) | -3.522
CN1Cc2ccccc2CC2(CCN(C(=O)[C@H]3CCCO3)CC2)C1=O | 1.609
CS(=O)(=O)NCCCNC(=O)c1cccnc1O | 9.766
Cc1nc2cc(F)cc(C(=O)N3CCN(CCO)CC3)c2nc1C | 9.498
CCCc1nnc(N2CCCC(c3nnc(Cn4ccnc4)n3C)C2)s1 (stereo not shown) | 1.524
O=C(CN1CCN(C(=O)c2cccc(-c3ccoc3)c2)CC1)C1CC1 | 2.231
COc1cccc(CC(=O)NC2CCCc3cn[nH]c32)c1 (stereo not shown) | 8.504
COc1cccc([C@H]2CN(CCCS(=O)(=O)N(C)C)C[C@@H]2N)c1 | 3.386
c1csc(CN2CCOCC3(CCN(C4CCOCC4)C3)C2)n1 (stereo not shown) | 11.68
CCn1cc(CN(C)S(=O)(=O)c2ccc(NC(C)=O)cc2)cn1 | -0.2449
CN(C)CC(=O)N1CC(c2nn(C)c3nccnc23)C1 | 4.483
O=C(C1SCCc2sccc21)N1CCN(CC(F)F)CC1 (stereo not shown) | 8.904
O=C(C1CCCC1)N1CCC(Nc2ccncn2)CC1 | -3.775
CC(C)n1ncc2c1NC(=O)CSC2C(F)(F)F (stereo not shown) | 3.952
Cc1cnc(NC(=O)N2CCC(N3CCCCC3=O)CC2)s1 | 0.7882
O=C1CN(C(=O)OCc2ccccc2)CC(O)CN1Cc1ccco1 (stereo not shown) | 3.896
CN(C)C(=O)N1CCC2(CCC(C(=O)N3CCCC3)O2)CC1 (stereo not shown) | 2.088
c1cncc(OCc2noc3c2CN(Cc2ccco2)CC3)c1 | 1.102
COC(C)(C)C(=O)N1Cc2cnc(C(C)(C)C)nc2C1 | 2.878
O=C(c1ncccn1)N1CCC[C@]2(C[C@@H](OCC3CC3)CO2)C1 | 1.433

The last 8 entries again:

{"compound": "O=C(C1CCCC1)N1CCC(Nc2ccncn2)CC1", "effect": -3.775}
{"compound": "CC(C)n1ncc2c1NC(=O)CSC2C(F)(F)F", "stereo": "stereo not shown", "effect": 3.952}
{"compound": "Cc1cnc(NC(=O)N2CCC(N3CCCCC3=O)CC2)s1", "effect": 0.7882}
{"compound": "O=C1CN(C(=O)OCc2ccccc2)CC(O)CN1Cc1ccco1", "stereo": "stereo not shown", "effect": 3.896}
{"compound": "CN(C)C(=O)N1CCC2(CCC(C(=O)N3CCCC3)O2)CC1", "stereo": "stereo not shown", "effect": 2.088}
{"compound": "c1cncc(OCc2noc3c2CN(Cc2ccco2)CC3)c1", "effect": 1.102}
{"compound": "COC(C)(C)C(=O)N1Cc2cnc(C(C)(C)C)nc2C1", "effect": 2.878}
{"compound": "O=C(c1ncccn1)N1CCC[C@]2(C[C@@H](OCC3CC3)CO2)C1", "effect": 1.433}